Results published in the supplement of paper PMC11348887.
The list shows a part of the results. Most entries show no effect beyond the scatter of the controls.

Columns and labels:
Settings in all cases: 5 µM; treatment: days 7-14 after plating, readout day 21
[1] = system: hPSC-derived cortical neurons (WA09); experiment: nucleus area z-score vs screen plate; higher = larger nuclei (more mature)
[2] = system: hPSC-derived cortical neurons (WA09); experiment: total neurite length per nucleus (MAP2) z-score; higher = more neurite growth
[3] = system: hPSC-derived cortical neurons (WA09); experiment: nucleus roundness z-score vs screen plate; higher = rounder nuclei (more mature)
[4] = system: hPSC-derived cortical neurons (WA09); experiment: KCl-induced FOS+/EGR-1+ double-positive nuclei fraction z-score (KCl minus unstimulated); higher = stronger activity-induced IEG response

**Q.** What does the source list for `Cc1cn([C@H]2C[C@H](N=[N+]=[N-])[C@@H](CO)O2)c(=O)[nH]c1=O` [Zidovudine]?
**A.** nucleus area z-score [1]: 0.548; total neurite length per nucleus (z-score) [2]: 0.662; nucleus roundness z-score [3]: 0.507; KCl-induced FOS+/EGR-1+ double-positive nuclei fraction z-score [4]: -0.596

**Q.** What does the source list for `CCN(CC)C(=S)SSC(=S)N(CC)CC` [Disulfiram]?
**A.** nucleus area z-score [1]: 0.441; total neurite length per nucleus (z-score) [2]: -0.143; nucleus roundness z-score [3]: -1.23; KCl-induced FOS+/EGR-1+ double-positive nuclei fraction z-score [4]: 0.397

**Q.** What does the source list for `OCC(CO)N[C@H]1C[C@](O)(CO)[C@@H](O)[C@H](O)[C@H]1O` [Voglibose]?
**A.** nucleus area z-score [1]: 3.54; total neurite length per nucleus (z-score) [2]: -2.12; nucleus roundness z-score [3]: -0.806; KCl-induced FOS+/EGR-1+ double-positive nuclei fraction z-score [4]: 0.135

**Q.** Which results are given for `CC(C)(C)OC(=O)N[C@H]1CCCCC/C=C\[C@@H]2C[C@@]2(C(=O)NS(=O)(=O)C2CC2)NC(=O)[C@@H]2C[C@@H](OC(=O)N3Cc4cccc(F)c4C3)CN2C1=O` [Danoprevir (ITMN-191)]?
**A.** nucleus area z-score [1]: 0.147; total neurite length per nucleus (z-score) [2]: 0.247; nucleus roundness z-score [3]: 0.563; KCl-induced FOS+/EGR-1+ double-positive nuclei fraction z-score [4]: 0.729

**Q.** Which results are given for `Cc1onc(-c2ccccc2)c1-c1ccc(S(N)(=O)=O)cc1` [Valdecoxib]?
**A.** nucleus area z-score [1]: 0.694; total neurite length per nucleus (z-score) [2]: -0.282; nucleus roundness z-score [3]: 0.254; KCl-induced FOS+/EGR-1+ double-positive nuclei fraction z-score [4]: 1.03

**Q.** What does the source list for `Cn1cc(C2=C(c3ccc(Cl)cc3Cl)C(=O)NC2=O)c2ccccc21`?
**A.** nucleus area z-score [1]: 1.43; total neurite length per nucleus (z-score) [2]: 0.399; nucleus roundness z-score [3]: 0.275; KCl-induced FOS+/EGR-1+ double-positive nuclei fraction z-score [4]: 0.659

**Q.** For `Cc1ccc2nc(NCCN)c3ncc(C)n3c2c1`, which nucleus area z-score [1] is on record?
**A.** 0.94

**Q.** What about the “total neurite length per nucleus (z-score)” value [2] of the same compound?
**A.** -0.477

**Q.** And the nucleus roundness z-score [3]?
**A.** -0.877

**Q.** What about the “KCl-induced FOS+/EGR-1+ double-positive nuclei fraction z-score” value [4] of the same compound?
**A.** 0.808

**Q.** For `Nc1ccn([C@@H]2O[C@H](CO)[C@@H](O)[C@@H]2O)c(=O)n1` [Cytarabine], which nucleus area z-score [1] is on record?
**A.** 1.56

**Q.** And the “total neurite length per nucleus (z-score)” value [2]?
**A.** 2.81

**Q.** What about the nucleus roundness z-score [3] of the same compound?
**A.** 0.437

**Q.** What about the “KCl-induced FOS+/EGR-1+ double-positive nuclei fraction z-score” value [4] of the same compound?
**A.** 1.74

**Q.** Which results are given for `C[C@@H](Oc1cc(-c2cnn(C3CCNCC3)c2)cnc1N)c1c(Cl)ccc(F)c1Cl`?
**A.** nucleus area z-score [1]: -0.563; total neurite length per nucleus (z-score) [2]: 0.239; nucleus roundness z-score [3]: -0.564; KCl-induced FOS+/EGR-1+ double-positive nuclei fraction z-score [4]: -1.01

**Q.** Which nucleus area z-score [1] does the source give for `Cc1nnc(C(=O)NC(C)(C)c2nc(C(=O)NCc3ccc(F)cc3)c(O)c(=O)n2C)o1` [Raltegravir (MK-0518)] here?
**A.** 1.39

**Q.** And the “total neurite length per nucleus (z-score)” value [2]?
**A.** -0.462

**Q.** What about the nucleus roundness z-score [3] of the same compound?
**A.** 0.715

**Q.** What about the “KCl-induced FOS+/EGR-1+ double-positive nuclei fraction z-score” value [4] of the same compound?
**A.** -0.581
